This is an account of results in the supplement of paper PMC10849652.

Amino acid sequences for entries named in this document (tags omitted). A change or cut given only in a name is not applied to a line headed by its entry.
UniProt Q5T8D3: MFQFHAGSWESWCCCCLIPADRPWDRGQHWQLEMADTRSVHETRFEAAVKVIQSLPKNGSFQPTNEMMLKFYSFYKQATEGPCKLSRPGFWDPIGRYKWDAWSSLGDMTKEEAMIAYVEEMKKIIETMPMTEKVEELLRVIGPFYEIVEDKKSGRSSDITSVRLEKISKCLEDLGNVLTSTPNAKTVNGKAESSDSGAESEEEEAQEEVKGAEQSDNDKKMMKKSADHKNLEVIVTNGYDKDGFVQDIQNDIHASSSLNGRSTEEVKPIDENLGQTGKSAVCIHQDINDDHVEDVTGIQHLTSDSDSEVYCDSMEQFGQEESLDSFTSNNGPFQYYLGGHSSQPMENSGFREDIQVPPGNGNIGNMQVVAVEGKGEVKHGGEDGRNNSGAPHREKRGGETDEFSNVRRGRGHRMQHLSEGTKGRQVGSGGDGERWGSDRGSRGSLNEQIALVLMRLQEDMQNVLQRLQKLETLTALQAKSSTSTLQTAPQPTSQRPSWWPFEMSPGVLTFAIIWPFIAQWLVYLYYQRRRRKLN
UniProt Q9NX38: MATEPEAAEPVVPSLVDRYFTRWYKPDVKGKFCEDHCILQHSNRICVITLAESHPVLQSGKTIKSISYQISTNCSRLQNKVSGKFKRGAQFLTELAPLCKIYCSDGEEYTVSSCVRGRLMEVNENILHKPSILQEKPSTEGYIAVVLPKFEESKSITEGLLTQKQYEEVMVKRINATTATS
UniProt Q9BTE6: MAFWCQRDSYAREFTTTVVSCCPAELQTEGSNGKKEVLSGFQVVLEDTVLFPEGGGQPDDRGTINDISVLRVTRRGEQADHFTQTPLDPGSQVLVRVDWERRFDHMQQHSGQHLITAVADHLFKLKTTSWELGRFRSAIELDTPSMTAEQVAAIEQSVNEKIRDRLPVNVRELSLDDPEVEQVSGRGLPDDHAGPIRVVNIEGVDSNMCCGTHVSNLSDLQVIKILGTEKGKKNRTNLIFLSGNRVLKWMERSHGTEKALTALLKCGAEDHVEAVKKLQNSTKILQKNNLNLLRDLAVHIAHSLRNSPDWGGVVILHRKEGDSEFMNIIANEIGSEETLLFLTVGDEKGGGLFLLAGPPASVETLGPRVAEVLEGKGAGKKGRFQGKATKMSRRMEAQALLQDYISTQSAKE
UniProt P49588, whole entry, looked up: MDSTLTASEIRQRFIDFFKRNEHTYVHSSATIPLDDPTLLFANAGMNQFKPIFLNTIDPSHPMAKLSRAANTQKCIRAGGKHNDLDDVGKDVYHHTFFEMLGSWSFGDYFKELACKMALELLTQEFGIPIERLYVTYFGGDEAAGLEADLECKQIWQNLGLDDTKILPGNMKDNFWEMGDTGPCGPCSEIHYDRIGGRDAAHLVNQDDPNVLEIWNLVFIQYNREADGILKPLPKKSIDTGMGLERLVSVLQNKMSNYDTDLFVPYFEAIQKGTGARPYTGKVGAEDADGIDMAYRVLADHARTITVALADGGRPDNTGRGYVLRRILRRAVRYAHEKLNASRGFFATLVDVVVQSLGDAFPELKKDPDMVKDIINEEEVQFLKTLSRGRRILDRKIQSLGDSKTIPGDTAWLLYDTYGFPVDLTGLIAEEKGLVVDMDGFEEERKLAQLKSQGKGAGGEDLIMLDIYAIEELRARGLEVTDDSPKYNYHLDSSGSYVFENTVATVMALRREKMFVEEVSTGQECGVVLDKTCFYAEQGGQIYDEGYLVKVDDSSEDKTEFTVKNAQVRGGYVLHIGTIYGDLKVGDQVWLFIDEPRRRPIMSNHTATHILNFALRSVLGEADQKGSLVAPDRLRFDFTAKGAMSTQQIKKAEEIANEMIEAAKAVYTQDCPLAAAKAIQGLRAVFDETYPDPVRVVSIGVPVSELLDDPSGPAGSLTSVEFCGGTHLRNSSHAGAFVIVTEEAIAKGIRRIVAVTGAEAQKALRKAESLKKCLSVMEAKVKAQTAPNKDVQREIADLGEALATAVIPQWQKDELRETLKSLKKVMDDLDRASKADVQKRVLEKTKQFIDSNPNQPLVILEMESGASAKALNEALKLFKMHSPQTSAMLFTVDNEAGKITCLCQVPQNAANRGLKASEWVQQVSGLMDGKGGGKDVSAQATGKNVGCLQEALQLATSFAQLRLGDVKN
UniProt O94911: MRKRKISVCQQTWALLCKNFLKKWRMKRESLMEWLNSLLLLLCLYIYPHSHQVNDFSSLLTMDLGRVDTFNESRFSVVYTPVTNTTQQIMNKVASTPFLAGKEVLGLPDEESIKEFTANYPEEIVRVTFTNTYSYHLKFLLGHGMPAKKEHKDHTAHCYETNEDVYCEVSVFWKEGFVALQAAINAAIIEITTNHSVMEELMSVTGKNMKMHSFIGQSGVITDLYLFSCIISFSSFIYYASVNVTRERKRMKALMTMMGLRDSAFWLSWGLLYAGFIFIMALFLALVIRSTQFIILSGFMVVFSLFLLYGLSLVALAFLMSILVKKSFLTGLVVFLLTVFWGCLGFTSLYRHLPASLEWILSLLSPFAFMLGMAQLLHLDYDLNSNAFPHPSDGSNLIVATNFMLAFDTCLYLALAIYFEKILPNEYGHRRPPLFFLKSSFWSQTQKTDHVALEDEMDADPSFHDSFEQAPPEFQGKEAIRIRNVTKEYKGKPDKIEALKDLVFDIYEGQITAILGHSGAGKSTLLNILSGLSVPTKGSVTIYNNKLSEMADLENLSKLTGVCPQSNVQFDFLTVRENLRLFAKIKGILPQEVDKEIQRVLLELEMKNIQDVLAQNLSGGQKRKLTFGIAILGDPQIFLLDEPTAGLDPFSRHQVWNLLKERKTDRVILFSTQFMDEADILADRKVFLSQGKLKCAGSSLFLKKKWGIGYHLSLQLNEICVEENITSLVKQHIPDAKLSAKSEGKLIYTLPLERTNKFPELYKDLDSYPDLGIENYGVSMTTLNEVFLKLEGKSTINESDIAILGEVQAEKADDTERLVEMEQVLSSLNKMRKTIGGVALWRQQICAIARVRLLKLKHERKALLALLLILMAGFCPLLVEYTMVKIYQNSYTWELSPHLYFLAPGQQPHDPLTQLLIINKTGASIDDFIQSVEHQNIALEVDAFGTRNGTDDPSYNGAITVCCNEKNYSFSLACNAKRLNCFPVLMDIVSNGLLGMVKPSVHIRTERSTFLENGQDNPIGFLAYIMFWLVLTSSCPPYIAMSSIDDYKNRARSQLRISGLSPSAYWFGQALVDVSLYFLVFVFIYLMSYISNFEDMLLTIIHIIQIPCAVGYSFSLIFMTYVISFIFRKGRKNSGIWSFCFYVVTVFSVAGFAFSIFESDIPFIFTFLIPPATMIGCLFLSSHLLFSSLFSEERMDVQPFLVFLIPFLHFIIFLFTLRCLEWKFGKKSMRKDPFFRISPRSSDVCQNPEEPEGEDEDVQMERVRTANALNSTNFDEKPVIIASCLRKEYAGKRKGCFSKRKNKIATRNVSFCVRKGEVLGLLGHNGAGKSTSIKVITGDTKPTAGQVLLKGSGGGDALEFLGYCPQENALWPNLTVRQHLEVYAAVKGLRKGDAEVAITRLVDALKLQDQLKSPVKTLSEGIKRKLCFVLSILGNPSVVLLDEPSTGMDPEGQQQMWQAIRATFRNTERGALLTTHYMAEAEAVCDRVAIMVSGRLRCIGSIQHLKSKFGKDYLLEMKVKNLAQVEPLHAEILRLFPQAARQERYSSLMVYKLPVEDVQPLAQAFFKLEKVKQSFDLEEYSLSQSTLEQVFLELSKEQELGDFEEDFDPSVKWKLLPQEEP
UniProt Q8N961, whole entry, looked up: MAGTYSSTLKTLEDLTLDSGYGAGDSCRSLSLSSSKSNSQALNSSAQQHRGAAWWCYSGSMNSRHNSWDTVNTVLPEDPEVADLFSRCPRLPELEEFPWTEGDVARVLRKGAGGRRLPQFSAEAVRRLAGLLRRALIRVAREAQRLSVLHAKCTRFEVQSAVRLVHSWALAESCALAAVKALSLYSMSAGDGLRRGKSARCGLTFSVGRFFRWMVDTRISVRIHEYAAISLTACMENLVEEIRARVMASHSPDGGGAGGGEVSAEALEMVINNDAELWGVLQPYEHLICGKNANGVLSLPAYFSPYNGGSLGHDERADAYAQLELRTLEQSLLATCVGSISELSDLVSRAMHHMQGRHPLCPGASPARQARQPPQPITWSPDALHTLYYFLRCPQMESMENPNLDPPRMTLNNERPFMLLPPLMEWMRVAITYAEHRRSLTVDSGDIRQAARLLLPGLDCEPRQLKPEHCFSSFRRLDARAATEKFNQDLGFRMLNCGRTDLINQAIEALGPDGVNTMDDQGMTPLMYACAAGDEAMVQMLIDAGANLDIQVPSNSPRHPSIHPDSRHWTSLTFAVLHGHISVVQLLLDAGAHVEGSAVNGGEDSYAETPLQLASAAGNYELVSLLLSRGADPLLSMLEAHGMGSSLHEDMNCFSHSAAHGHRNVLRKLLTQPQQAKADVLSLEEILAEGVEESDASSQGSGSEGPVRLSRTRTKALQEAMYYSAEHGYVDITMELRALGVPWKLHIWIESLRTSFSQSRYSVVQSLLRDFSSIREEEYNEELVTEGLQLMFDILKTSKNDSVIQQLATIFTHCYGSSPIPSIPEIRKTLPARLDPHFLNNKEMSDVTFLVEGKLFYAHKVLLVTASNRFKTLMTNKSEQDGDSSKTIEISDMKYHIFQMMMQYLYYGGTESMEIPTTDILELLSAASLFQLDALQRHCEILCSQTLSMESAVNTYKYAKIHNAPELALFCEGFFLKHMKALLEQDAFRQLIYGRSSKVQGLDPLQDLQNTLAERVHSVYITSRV
UniProt Q6JQN1: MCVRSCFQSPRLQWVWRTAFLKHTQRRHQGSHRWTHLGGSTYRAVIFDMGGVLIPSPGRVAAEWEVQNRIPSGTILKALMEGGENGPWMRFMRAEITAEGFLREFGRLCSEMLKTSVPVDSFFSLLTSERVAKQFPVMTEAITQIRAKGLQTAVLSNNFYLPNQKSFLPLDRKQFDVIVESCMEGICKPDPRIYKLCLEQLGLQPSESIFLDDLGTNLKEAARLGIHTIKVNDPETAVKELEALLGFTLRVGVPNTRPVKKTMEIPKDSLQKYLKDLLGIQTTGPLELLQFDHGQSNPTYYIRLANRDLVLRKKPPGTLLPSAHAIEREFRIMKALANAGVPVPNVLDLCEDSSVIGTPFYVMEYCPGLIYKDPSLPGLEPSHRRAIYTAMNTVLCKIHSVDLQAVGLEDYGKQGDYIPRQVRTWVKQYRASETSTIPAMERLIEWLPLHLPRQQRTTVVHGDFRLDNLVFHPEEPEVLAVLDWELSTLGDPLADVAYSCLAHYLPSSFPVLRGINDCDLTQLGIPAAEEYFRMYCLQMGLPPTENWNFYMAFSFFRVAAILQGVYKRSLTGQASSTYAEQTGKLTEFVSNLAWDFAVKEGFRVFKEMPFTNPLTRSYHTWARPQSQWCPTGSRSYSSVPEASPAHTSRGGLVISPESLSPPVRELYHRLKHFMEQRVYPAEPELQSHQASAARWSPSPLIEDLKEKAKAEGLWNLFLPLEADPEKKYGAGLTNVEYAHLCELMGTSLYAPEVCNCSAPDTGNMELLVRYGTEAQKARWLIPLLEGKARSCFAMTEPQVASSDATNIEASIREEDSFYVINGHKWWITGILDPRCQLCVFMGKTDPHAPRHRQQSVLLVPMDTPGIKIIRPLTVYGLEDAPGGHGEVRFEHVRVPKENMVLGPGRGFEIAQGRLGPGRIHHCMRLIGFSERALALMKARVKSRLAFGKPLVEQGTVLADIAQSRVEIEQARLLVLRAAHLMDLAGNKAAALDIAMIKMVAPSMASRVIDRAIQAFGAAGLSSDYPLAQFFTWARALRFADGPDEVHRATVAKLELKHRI
UniProt Q15027: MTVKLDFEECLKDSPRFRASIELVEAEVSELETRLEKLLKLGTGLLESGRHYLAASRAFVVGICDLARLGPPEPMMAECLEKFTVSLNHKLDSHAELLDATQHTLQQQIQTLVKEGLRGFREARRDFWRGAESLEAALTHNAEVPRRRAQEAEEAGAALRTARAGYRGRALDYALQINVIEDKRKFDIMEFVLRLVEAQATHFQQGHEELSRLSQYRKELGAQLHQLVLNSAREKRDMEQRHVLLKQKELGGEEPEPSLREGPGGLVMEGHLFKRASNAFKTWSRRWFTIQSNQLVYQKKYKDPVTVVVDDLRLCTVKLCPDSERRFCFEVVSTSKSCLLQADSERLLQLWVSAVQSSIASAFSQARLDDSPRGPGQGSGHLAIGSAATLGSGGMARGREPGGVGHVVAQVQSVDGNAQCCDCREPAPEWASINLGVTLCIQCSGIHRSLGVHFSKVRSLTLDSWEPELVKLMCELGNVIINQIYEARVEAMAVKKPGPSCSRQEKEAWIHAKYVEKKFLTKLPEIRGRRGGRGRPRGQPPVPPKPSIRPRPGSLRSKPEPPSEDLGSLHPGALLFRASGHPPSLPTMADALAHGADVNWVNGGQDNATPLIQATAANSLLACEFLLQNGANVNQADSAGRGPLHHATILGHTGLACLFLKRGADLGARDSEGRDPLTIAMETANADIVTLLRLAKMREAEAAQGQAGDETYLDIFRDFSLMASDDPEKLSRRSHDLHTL

Some of the results follow.

Compound in the experiment: c1ccc([C@@H]2C[C@H]2NC2CCNCC2)cc1
Kind of experiment: log2 fold change, soluble protein after heating vs DMSO (PISA); higher = thermal stabilisation; K562 lysate, 10 uM; active = over 0.2 and 3.5 SD of the protein, either way, in both replicates (recomputed). A digest of the protocol:
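Log-two fold change in thermal stability relative to solvent controls is reported from duplicates. For each sample, crude K562 extract from dounce-homogenised pellets in PBS pH 7.4 with 1 mM MgCl2, at 1 mg/mL protein, was treated with 10 μM compound for 30 min. Aliquots heated for 3 min across 48°C-58°C were pooled, brought to 0.5% NP-40 at 4°C and cleared at 21,000xg for 90 min. The supernatant was quantified by TMTpro 16plex LC-MS/MS with channel sums equalised.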
As to ACAD8 (UniProt Q9UKU7), the log2 fold change is inactive: -0.016.
The figure for AASDH (UniProt Q4L235) is inactive: -0.017.
The figure for ACBD5 (UniProt Q5T8D3) is inactive: 0.07; for ACAT1, A0A5F9ZHJ0 it is inactive: -0.06; for AARS2 (UniProt Q5JTZ9) it is inactive: 0.045.
ABITRAM (UniProt Q9NX38): the log2 fold change is inactive: -0.083.
Turning to AARSD1 (UniProt Q9BTE6), the log2 fold change was inactive: -0.399.
For ABHD15 (UniProt Q6UXT9) the value was inactive: 0; for ABRAXAS2 (UniProt Q15018), inactive: -0.005.
For ACIN1 (UniProt E7EQT4) the value was inactive: -0.118.
For ABHD16A (UniProt O95870) the value was inactive: 0.028; for ABRACL (UniProt Q9P1F3), inactive: 0.075.
Turning to AACS (UniProt Q86V21), the log2 fold change is inactive: 0.079.
The figure for AARS (UniProt P49588) is inactive: 0.008.
The figure for ABCB10 (UniProt Q9NRK6) is inactive: 0.004; for ABCG2 (UniProt Q9UNQ0) it is inactive: -0.115; for ABL2 (UniProt P42684) it is inactive: -0.105.
The figure for ABCA8 isoform 3 (UniProt O94911) is inactive: 0.024; for AAMP (UniProt Q13685) it is inactive: 0.022; for ABRAXAS1 (UniProt Q6UWZ7) it is inactive: -0.006.
With AATF (UniProt Q9NY61), the log2 fold change is inactive: 0.143.
For ACLY isoform 2 (UniProt P53396), the log2 fold change was inactive: -0.325.
The figure for ABCE1 (UniProt H0Y990) is inactive: -0.025; for ABTB2 (UniProt Q8N961) it is inactive: 0.139.
The figure for ABCC10 (UniProt Q5T3U5) is inactive: 0.042; for ACD (UniProt Q96AP0) it is inactive: -0.042; for A0A494C071, A0A494C071 it is inactive: -0.14.
The figure for AASDHPPT (UniProt Q9NRN7) is inactive: 0.015.
For A2ML1 (UniProt A8K2U0), the log2 fold change is inactive: -0.079.
The figure for ACAD10 isoform 5 (UniProt Q6JQN1) is inactive: 0.017; for ABCA3 (UniProt Q99758) it is inactive: -0.005.
On to ACAP1 (UniProt Q15027), for which the log2 fold change was inactive: 0.052.
